Source: patent publication US6589933
These are yes or no findings as the source states them, for the method shown. Some binding calls cover weakened binding; strength is not graded here.

Protein sequences, listed by entry. Tags and fused reporters are not part of them. Residues count along the entry.
UniProt P13236, residues 24-92: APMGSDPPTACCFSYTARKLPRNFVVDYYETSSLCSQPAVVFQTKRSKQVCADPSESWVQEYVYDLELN

Target: human MIP-1β (human) (UniProt P13236)
Experiment: 125I-ligand cross-linking to infected BGMK supernatant, SDS-PAGE gel shift

Substance: 35 KDa protein from vaccinia (strain Lister) (from UniProt P19063 18-258)
- binding: binds
